# Test results taken from PubChem BioAssay AID504834 (National Center for Advancing Translational Sciences (NCATS), 2011).
# Where “and” joins values, the source holds several entries; their conditions need not be identical. Identical values can stand only once. Among all 320,000 compounds or so, about 22,000 (6.9%) were called active. The shares of active, inactive and inconclusive entries below differ from those in the screen. Calls come from the whole dose curve; as a rule, active = well fitted inhibition curve with a large enough effect; inconclusive = small, poorly fitted or top-dose-only effect, or another doubt; inactive = no such curve, though single readings can be large or run the other way. A potency beside an inconclusive call is a rough fit, not a confirmed value. A structure can be active in one record and inactive in another.
# Test: Primary qHTS for delayed death inhibitors of the malarial parasite plastid, 96 hour incubation
# Conditions: P. falciparum luciferase reporter growth; series mostly up to 28.7 µM
# Procedure, shortened: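 Plates of compound plus infected erythrocytes (2% hematocrit, 0.05% parasitemia final) incubate 96 hours, 37 C, 5% CO2. Detection reagent added; reduced luminescence from the parasites' luciferase reporter flags inhibition.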
# Potency is the fitted concentration of half-maximal effect.
row,Structure (SMILES),Potency
1,CN(C)C(=O)Nc1ccc(Cl)c(Cl)c1,"inconclusive: 6.75 µM [inhibitor, partial curve]"
2,CCCCNc1c([N+](=O)[O-])c(=O)n(C)c2ccccc12,"inconclusive: 0.0033 µM [inhibitor, full curve, poor fit]"
3,Cc1ccsc1C(=O)OCC(=O)N1CCN(C(=O)c2ccco2)CC1,inactive
4,COc1cccc(C(=O)C[n+]2cccc3cc(OC)ccc32)c1,"inconclusive: 18.5 µM [inhibitor, single point]"
5,CCC(C)c1ccc(NC(=O)c2c([N+](=O)[O-])cnn2CC)cc1 (configuration not stated),active: 5.22 µM
6,O=C1c2ccccc2CN2C(=O)c3ccccc3CN12,active: 3.7 µM
7,CC(C)(C)NC(=O)CCc1nnc(Cc2c[nH]c3ccccc23)o1,"inconclusive: 16.5 µM [inhibitor, single point]"
8,COc1ccc(C)cc1NC(=O)COC(=O)c1ccccc1SCC(=O)N1CCCC1,"inconclusive: 18.5 µM [inhibitor, single point]"
9,COC(=O)C1=C(C)N(Cc2ccccc2)C(=NCc2cc(OC)c(OC)c(OC)c2)N[C@H]1c1cccc(F)c1,active: 3.7 µM and active: 10.4 µM
10,Cc1ccc(OCC(=O)Nc2ccccc2C(=O)N2CCCCC2)cc1,"inconclusive: 7.38 µM [inhibitor, partial curve, poor fit]"
11,Cc1c(Br)c([N+](=O)[O-])nn1CC(=O)Nc1cccc2nonc12,inactive
12,Cc1ccc(-c2nnc3sc(CCc4ccccc4)nn23)cc1,inactive
13,CN(Cc1cccc(C(F)(F)F)c1)Cc1nc(-c2cnccn2)no1,active: 7.38 µM
14,COc1ccc(-c2cc3cc(OC)c(OC)cc3c(C)n2)cc1C,active: 10.4 µM
15,S=C(NCc1ccccc1)Nc1ccncc1,"inconclusive: 18.5 µM [inhibitor, single point]"
16,CC(OC(=O)c1ccccc1NS(=O)(=O)c1cccc(C(F)(F)F)c1)C(=O)N(C)Cc1ccccc1 (configuration not stated),active: 10.4 µM
17,COc1ccc2nc(C)cc(SCC(=O)N/N=C/c3ccccc3)c2c1,active: 4.15 µM
18,Cc1cccc(C(=O)NNC(=O)CSc2nnc(C(C)C)n2C)c1,inactive
19,Cc1ccccc1CCNC(=O)c1ccc(Cl)c(S(=O)(=O)N2CC(C)OC(C)C2)c1 (configuration not stated),active: 13.1 µM
20,CC(C)(C)NC(=O)Cn1c(SCC(=O)NCc2cccs2)nc2ccccc21,"inconclusive: 10.4 µM [inhibitor, single point]"
21,COc1ccc([N+](=O)[O-])cc1NC(=O)CN(C)S(=O)(=O)c1ccccc1,"inconclusive: 10.4 µM [inhibitor, partial curve]"
22,O=C(N/N=C/c1sc(N2CCCCC2)nc1-c1cccs1)c1cccnc1,active: 2.08 µM
23,Cc1ccccc1N1CC(C(=O)Nc2nnc(SCc3ccccn3)s2)CC1=O (configuration not stated),active: 7.38 µM
24,C/C(=N\Nc1cccc([N+](=O)[O-])c1)c1cc2ccccc2o1,inactive

row,Structure (SMILES),Potency
1,CC(C)Sc1nc2sc3c(c2c2nnc(SCC(=O)NCc4ccco4)n12)CCCC3,"inconclusive: 18.5 µM [inhibitor, single point]"
2,O=C(Oc1ccccc1)c1cccc2cccc(C(=O)Oc3ccccc3)c12,active: 10.4 µM
3,CCOC(=O)c1ccc(/C=N/O)[n+](Cc2ccccc2)c1,inactive
4,C=CCNCCCOc1ccc(Cl)cc1Br,"inconclusive: 0.928 µM [inhibitor, full curve, poor fit]"
5,COc1ccc(/C=C/C(=O)c2ccc3ccccc3c2O)cc1CN1CCOCC1,active: 11.7 µM
6,Cc1nc2cc(NC(=O)COc3ccc(C#N)cc3)ccc2n1-c1ccccc1,"inconclusive: 9.28 µM [inhibitor, partial curve, poor fit]"
7,C=CCn1c(SCC(=O)NC23CC4CC(CC(C4)C2)C3)nc2cc(C(=O)O)ccc2c1=O,active: 4.65 µM
8,COC(=O)Cn1cnc2sc(C)c(S(=O)(=O)N3CCN(c4ccccc4OC)CC3)c2c1=O,"inconclusive: 4.65 µM [inhibitor, partial curve]"
9,Cc1c(-c2ccccc2)nc2ccccc2c1C(=O)NCc1cccs1,"inconclusive: 18.5 µM [inhibitor, single point]"
10,O=C1Nc2ccc([N+](=O)[O-])cc2OC1CCN1CCOCC1 (configuration not stated),"inconclusive: 10.4 µM [inhibitor, single point]"
11,CC(O)CNc1nc2c(c(=O)n(Cc3cccc(Cl)c3)c(=O)n2C)n1C (configuration not stated),"inconclusive: 18.5 µM [inhibitor, single point]"
12,COc1cccc(Cn2cccc(NC(=O)Nc3ccccc3C)c2=O)c1,inactive
13,COc1ccccc1N1CCN(S(=O)(=O)c2ccc3nc(-c4ccccc4)[nH]c3c2)CC1,active: 2.94 µM
14,COc1ccc(CCNC2=C(Cl)C(=O)N(CCc3ccc(OC)c(OC)c3)C2=O)cc1OC,"inconclusive: 4.65 µM [inhibitor, partial curve, poor fit]"
15,S=C(NCc1cccnc1)Nc1ccc(Cl)cc1,inactive
16,CCc1ccc(-n2cccc2/C=C2/C(=N)N3C(=NC2=O)SN=C3S(C)(=O)=O)cc1,"inconclusive: 7.38 µM [inhibitor, partial curve, poor fit]"
17,CC(=O)Nc1ccc(OCc2cccc3ccccc23)cc1,"inconclusive: 1.17 µM [inhibitor, full curve, poor fit]"
18,CCCCn1c(N)c(C(=S)NC(=O)CC(C)(C)C)c(=O)n(C)c1=O,inactive
19,Cc1ccc(Cl)cc1N1CCN(C(=O)c2ccccc2SCC(=O)N2CCCC2)CC1,"inconclusive: 18.5 µM [inhibitor, single point]"
20,CCOC(=O)N1CCN(C(=O)/C=C/c2cccc([N+](=O)[O-])c2)CC1,"inconclusive: 1.04 µM [inhibitor, partial curve, poor fit]"
21,CCOC(=O)N1CCC(NC(=O)CCC(=O)N2CC(C)Oc3ccc(Cl)cc32)CC1 (configuration not stated),inactive
22,O=c1ccc(-c2ccccc2)nn1Cc1ccc(F)cc1,"inconclusive: 18.5 µM [inhibitor, single point]"
23,CN(C)c1ncnc2c1NC1=C(S2)C(=NCCCC(=O)O)CC(C)(C)C1,inactive
